Data: patent publication US7148020B2 (Arexis AB, priority 2001, dated 2006)

Assay: general procedure: Fmoc solid-phase peptide synthesis; Fmoc-Gly-TentaGel-R-PHB resin (~0.2 mmol/g, Rapp Polymere); DIC/HOBt; HATU/DIPEA; HBTU/DIPEA; DIC/HOAt
Details: whole synthesis

Substance	isolated mass (scale 20 μmol)	isolated yield (scale 20 μmol)	isolated mass (scale 10 μmol)	isolated yield (scale 10 μmol)
KTA-[Gly-(Gly-Pro-Hyp)5-Gly-CII(257-258Hyp-273T-274)]3-L(F)Ahx	8.9 mg	4.1%		
[(Pro-Hyp-Gly)5-CII(257-258Hyp-273T-274)]3-LAhx			5.2 mg	5.2%
